Melanoma cell counts after drug treatment

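Human melanoma cells were exposed to a pair of drugs for 72 h in 1,536-well plates and read by automated microscopy after fixing and staining. Each value is the count of nuclei relative to DMSO-treated wells, in %, so that 100 equals the control. Concentrations were fixed for each drug; these are the lower of two levels, a fifth of the higher. These are primary screening values without error estimates.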 Only some of the drugs and lines screened are listed, without regard to their results.

Drugs:
L-779450: Oc1cc(-c2nc(-c3ccccc3)[nH]c2-c2ccncc2)ccc1Cl at 200 nM
indole-3-carbinol: OCc1c[nH]c2ccccc12 at 800 nM
Src-I1: COc1cc2ncnc(Nc3ccc(Oc4ccccc4)cc3)c2cc1OC at 2000 nM
pazopanib: Cc1ccc(Nc2nccc(N(C)c3ccc4c(C)n(C)nc4c3)n2)cc1S(N)(=O)=O at 400 nM
decitabine: Nc1ncn([C@H]2C[C@H](O)[C@@H](CO)O2)c(=O)n1 at 100 nM
vorinostat: O=C(CCCCCCC(=O)Nc1ccccc1)NO at 80 nM
selumetinib: Cn1cnc2c(F)c(Nc3ccc(Br)cc3Cl)c(C(=O)NOCCO)cc21 at 15 nM
fludarabine: Nc1nc(F)nc2c1ncn2[C@@H]1O[C@H](CO)[C@@H](O)[C@@H]1O at 200 nM
lestaurtinib: C[C@]12O[C@H](C[C@]1(O)CO)n1c3ccccc3c3c4c(c5c6ccccc6n2c5c31)CNC4=O at 4 nM
IMD-0354: O=C(Nc1cc(C(F)(F)F)cc(C(F)(F)F)c1)c1cc(Cl)ccc1O at 16 nM
BI-D1870: CC(C)CCN1c2nc(Nc3cc(F)c(O)c(F)c3)ncc2N(C)C(=O)C1C (stereo not drawn) at 200 nM
U73122: COc1ccc2c(c1)CCC1C2CCC2(C)C(NCCCCCCN3C(=O)C=CC3=O)CCC12 (stereo not drawn) at 400 nM
PD173074: CCN(CC)CCCCNc1ncc2cc(-c3cc(OC)cc(OC)c3)c(NC(=O)NC(C)(C)C)nc2n1 at 100 nM
PF-562271: CN(c1ncccc1CNc1nc(Nc2ccc3c(c2)CC(=O)N3)ncc1C(F)(F)F)S(C)(=O)=O at 80 nM
darinaparsin: C[As](C)SC[C@H](NC(=O)CC[C@H](N)C(=O)O)C(=O)NCC(=O)O at 400 nM
veliparib: C[C@]1(c2nc3c(C(N)=O)cccc3[nH]2)CCCN1 at 1400 nM
erlotinib: C#Cc1cccc(Nc2ncnc3cc(OCCOC)c(OCCOC)cc23)c1 at 800 nM
lenalidomide: Nc1cccc2c1CN(C1CCC(=O)NC1=O)C2=O (stereo not drawn) at 1000 nM
ABT-263: CC1(C)CCC(c2ccc(Cl)cc2)=C(CN2CCN(c3ccc(C(=O)NS(=O)(=O)c4ccc(N[C@H](CCN5CCOCC5)CSc5ccccc5)c(S(=O)(=O)C(F)(F)F)c4)cc3)CC2)C1 at 400 nM

With selumetinib and pazopanib the screen read COLO 792: 91.3; COLO 800: 121; LB2518-MEL: 77.9; MEL-HO: 99.6. For IMD-0354 and pazopanib the values were COLO 792: 104; COLO 800: 122; LB2518-MEL: 99.3; MEL-HO: 110. Results for ABT-263 and indole-3-carbinol are COLO 792: 73.4; COLO 800: 51.0; LB2518-MEL: 92.4; MEL-HO: 83.9.

For indole-3-carbinol and IMD-0354 the values were COLO 792: 94.5; COLO 800: 71.0; LB2518-MEL: 113; MEL-HO: 93.0. For lenalidomide and BI-D1870 the values were COLO 792: 88.1; COLO 800: 150; LB2518-MEL: 87.4; MEL-HO: 97.8. With pazopanib and fludarabine the screen read COLO 792: 89.4; COLO 800: 93.9; LB2518-MEL: 97.8; MEL-HO: 94.3.

pazopanib and lestaurtinib gave COLO 792: 97.4; COLO 800: 69.4; LB2518-MEL: 93.0; MEL-HO: 94.3. For erlotinib and BI-D1870 the values were COLO 792: 79.3; COLO 800: 116; LB2518-MEL: 108; MEL-HO: 105. With indole-3-carbinol and pazopanib the screen read COLO 792: 93.1; COLO 800: 80.6; LB2518-MEL: 107; MEL-HO: 101.

lestaurtinib and selumetinib gave COLO 792: 73.2; COLO 800: 78.9; LB2518-MEL: 72.0; MEL-HO: 95.8. lestaurtinib and IMD-0354 gave COLO 792: 97.6; COLO 800: 65.0; LB2518-MEL: 105; MEL-HO: 119. Results for darinaparsin and IMD-0354 are COLO 792: 89.0; COLO 800: 91.1; LB2518-MEL: 96.3; MEL-HO: 98.7.

lenalidomide and L-779450 gave COLO 792: 109; COLO 800: 70.8; LB2518-MEL: 118; MEL-HO: 85.7. For vorinostat and BI-D1870 the values were COLO 792: 90.4; COLO 800: 127; LB2518-MEL: 92.9; MEL-HO: 103. With veliparib and U73122 the screen read COLO 792: 90.8; COLO 800: 86.8; LB2518-MEL: 101; MEL-HO: 92.5.

For PF-562271 and darinaparsin the values were COLO 792: 84.9; COLO 800: 67.4; LB2518-MEL: 103; MEL-HO: 94.4. veliparib and PD173074 gave COLO 792: 90.2; COLO 800: 107; LB2518-MEL: 92.1; MEL-HO: 95.8. Results for ABT-263 and decitabine are COLO 792: 45.5; COLO 800: 52.1; LB2518-MEL: 72.1; MEL-HO: 56.8.

PF-562271 and pazopanib gave COLO 792: 100; COLO 800: 124; LB2518-MEL: 106; MEL-HO: 94.5. Results for decitabine and darinaparsin are COLO 792: 89.9; COLO 800: 65.9; LB2518-MEL: 94.7; MEL-HO: 80.0. Results for lenalidomide and PD173074 are COLO 792: 92.9; COLO 800: 93.5; LB2518-MEL: 108; MEL-HO: 104.

For Src-I1 and erlotinib the values were COLO 792: 92.7; COLO 800: 87.1; LB2518-MEL: 114; MEL-HO: 92.1. Results for ABT-263 and IMD-0354 are COLO 792: 74.2; COLO 800: 79.2; LB2518-MEL: 101; MEL-HO: 74.3. Results for PD173074 and selumetinib are COLO 792: 72.6; COLO 800: 82.2; LB2518-MEL: 60.2; MEL-HO: 103.

For vorinostat and L-779450 the values were COLO 792: 95.5; COLO 800: 109; LB2518-MEL: 88.4; MEL-HO: 103. For erlotinib and U73122 the values were COLO 792: 80.9; COLO 800: 78.7; LB2518-MEL: 107; MEL-HO: 102. vorinostat and Src-I1 gave COLO 792: 92.4; COLO 800: 137; LB2518-MEL: 134; MEL-HO: 98.5.

veliparib and Src-I1 gave COLO 792: 87.4; COLO 800: 85.8; LB2518-MEL: 101; MEL-HO: 117. Results for veliparib and L-779450 are COLO 792: 107; COLO 800: 79.1; LB2518-MEL: 75.9; MEL-HO: 102. Results for PF-562271 and IMD-0354 are COLO 792: 80.7; COLO 800: 96.2; LB2518-MEL: 114; MEL-HO: 89.6.

ABT-263 and darinaparsin gave COLO 792: 63.2; COLO 800: 107; LB2518-MEL: 101; MEL-HO: 76.0. pazopanib and decitabine gave COLO 792: 87.1; COLO 800: 103; LB2518-MEL: 91.8; MEL-HO: 90.9. Results for L-779450 and erlotinib are COLO 792: 86.2; COLO 800: 85.0; LB2518-MEL: 64.2; MEL-HO: 89.8.

With erlotinib and pazopanib the screen read COLO 792: 65.3; COLO 800: 108; LB2518-MEL: 79.7; MEL-HO: 86.7. With darinaparsin and indole-3-carbinol the screen read COLO 792: 95.6; COLO 800: 84.9; LB2518-MEL: 95.6; MEL-HO: 98.1. With veliparib and pazopanib the screen read COLO 792: 88.3; COLO 800: 117; LB2518-MEL: 88.5; MEL-HO: 99.4.

Results for veliparib and BI-D1870 are COLO 792: 84.7; COLO 800: 102; LB2518-MEL: 94.1; MEL-HO: 110. IMD-0354 and fludarabine gave COLO 792: 81.6; COLO 800: 149; LB2518-MEL: 121; MEL-HO: 98.7.

3 of the entries, repeated:

- PF-562271 and darinaparsin : COLO 792: 84.9; COLO 800: 67.4; LB2518-MEL: 103; MEL-HO: 94.4
- IMD-0354 and fludarabine : COLO 792: 81.6; COLO 800: 149; LB2518-MEL: 121; MEL-HO: 98.7
- vorinostat and L-779450 : COLO 792: 95.5; COLO 800: 109; LB2518-MEL: 88.4; MEL-HO: 103

Source: doi:10.1371/journal.pone.0140310, primary screening data, rounded.